This note sets out measurements from publication PMC8935242.

Sequences of proteins named here, by UniProt entry; tags and fusion partners are left off.
UniProt Q9UI95: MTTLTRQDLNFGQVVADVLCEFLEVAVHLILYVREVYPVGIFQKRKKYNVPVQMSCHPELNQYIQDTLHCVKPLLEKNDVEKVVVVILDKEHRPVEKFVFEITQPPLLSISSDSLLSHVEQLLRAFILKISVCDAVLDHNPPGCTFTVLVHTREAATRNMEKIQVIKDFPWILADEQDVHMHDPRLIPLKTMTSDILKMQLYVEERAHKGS

Results are given in words; binding and its absence hold for the method and conditions named. Binding seen in cells or lysates may run through a third protein. Some binding calls cover weakened binding; strength is not graded here.

The target in this assay is T1, Numb, endogenous in human podocytes (human (endogenous in human podocytes)) (UniProt P49757).
T1 sequence: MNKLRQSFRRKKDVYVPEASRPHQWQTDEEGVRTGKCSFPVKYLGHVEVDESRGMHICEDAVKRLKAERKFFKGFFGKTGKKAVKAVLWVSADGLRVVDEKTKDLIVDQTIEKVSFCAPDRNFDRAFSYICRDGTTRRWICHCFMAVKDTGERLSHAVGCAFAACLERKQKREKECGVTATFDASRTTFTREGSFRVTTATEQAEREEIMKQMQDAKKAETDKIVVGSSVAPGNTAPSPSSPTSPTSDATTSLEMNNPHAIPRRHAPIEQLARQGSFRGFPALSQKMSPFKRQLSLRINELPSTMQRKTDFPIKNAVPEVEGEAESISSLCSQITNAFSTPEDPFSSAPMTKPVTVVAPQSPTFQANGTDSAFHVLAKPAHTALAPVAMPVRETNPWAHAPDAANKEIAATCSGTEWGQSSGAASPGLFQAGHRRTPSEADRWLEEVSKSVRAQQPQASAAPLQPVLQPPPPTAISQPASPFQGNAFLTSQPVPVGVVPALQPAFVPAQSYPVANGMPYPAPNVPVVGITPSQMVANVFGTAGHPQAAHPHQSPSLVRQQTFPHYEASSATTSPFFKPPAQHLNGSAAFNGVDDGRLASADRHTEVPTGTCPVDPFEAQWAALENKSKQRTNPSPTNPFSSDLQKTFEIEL
Briefly: co-IP; whole cell lysates (RIPA, 1 mg protein) of human podocytes, control or treated with high glucose; immunoprecipitated with anti-Numb or IgG and Protein A/G PLUS-Agarose, 4 °C; blotted with anti-MAD2B and anti-Numb.

Turning to “MAD2B, endogenous in human podocytes (from UniProt Q9UI95 1-211)”, the binding result is recorded as “binds”.
